Laboratory results reported in patent US20230174596A1 (published 2023).
Results are given in words; binding and its absence hold for the method and conditions named. Some binding calls cover weakened binding; strength is not graded here.

Chains of the proteins cited; added tags and fusions are not shown. Lines headed by an entry give the natural chain unless they say otherwise; changes in a name come on top. A line that says so, or that is headed by a name, gives the form on record, which may keep a tag or linker.
Flt-1 (P17948, form named): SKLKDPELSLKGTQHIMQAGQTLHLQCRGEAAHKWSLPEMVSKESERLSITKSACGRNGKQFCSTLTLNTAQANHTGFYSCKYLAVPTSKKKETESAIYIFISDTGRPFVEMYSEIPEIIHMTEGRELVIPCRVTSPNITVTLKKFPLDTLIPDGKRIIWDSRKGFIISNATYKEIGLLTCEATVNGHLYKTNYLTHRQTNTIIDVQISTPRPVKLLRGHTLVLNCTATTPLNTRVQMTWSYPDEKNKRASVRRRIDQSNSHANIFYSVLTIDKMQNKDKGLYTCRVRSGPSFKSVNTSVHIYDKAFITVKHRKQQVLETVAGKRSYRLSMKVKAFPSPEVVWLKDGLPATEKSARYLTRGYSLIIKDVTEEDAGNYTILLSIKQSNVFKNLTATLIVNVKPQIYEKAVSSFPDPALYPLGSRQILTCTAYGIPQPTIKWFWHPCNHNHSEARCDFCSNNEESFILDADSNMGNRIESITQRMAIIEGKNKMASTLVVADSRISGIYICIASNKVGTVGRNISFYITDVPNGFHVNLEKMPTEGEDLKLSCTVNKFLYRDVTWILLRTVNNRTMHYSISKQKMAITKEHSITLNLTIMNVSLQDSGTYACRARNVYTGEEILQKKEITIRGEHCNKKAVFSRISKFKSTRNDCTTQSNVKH

How the values were obtained:
[1] = target: T1, PlGf-2 (human) (UniProt P49763); assay: plate ELISA, receptor-Fc or biotinylated receptor on coated growth factor
T1 sequence (looked up): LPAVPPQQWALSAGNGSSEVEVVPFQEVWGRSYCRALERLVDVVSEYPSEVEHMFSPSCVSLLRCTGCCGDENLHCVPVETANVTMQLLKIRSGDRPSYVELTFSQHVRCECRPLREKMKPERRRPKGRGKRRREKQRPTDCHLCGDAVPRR

[2] = target: T2, VEGF-B (human) (UniProt P49765); assay: as above
T2 sequence (looked up): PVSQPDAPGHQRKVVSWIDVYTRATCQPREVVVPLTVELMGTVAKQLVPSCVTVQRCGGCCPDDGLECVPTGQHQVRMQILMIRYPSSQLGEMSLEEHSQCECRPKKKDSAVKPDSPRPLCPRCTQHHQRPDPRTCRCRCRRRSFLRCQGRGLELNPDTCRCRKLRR

Flt-1 (from UniProt P17948 27-687) (receptor)
binding [1]: binds
binding [2]: binds
